This is an account of results in patent US20240390316A1, “USE OF DOXEPIN HYDROCHLORIDE IN PREPARATION OF ANTIVIRAL DRUG” (SHENZHEN TECHNOLOGY UNIVERSITY, priority 2022, published 2024).

The test system of one experiment is CVB1. The experiment is described as follows: microbe, parasite or virus in culture. As for the experimental part:
72 hours later, the degree of a cytopathic effect was detected by an AlamarBlue fluorescent reagent, and an inhibition rate was calculated by using a formula.

The test system of experiment [1] is CVB2.
In experiment [2] the test system is CVB3.
Experiment [3] deals with CVB2. Put plainly: microbe, parasite or virus in culture. Particulars: Enterovirus B, CVB2, Vero, read-out: IC50 (50% inhibitory concentration).
The subject of experiment [4] is CVB3. Put plainly: microbe, parasite or virus in culture. As to conditions: Enterovirus B, CVB3, Vero, read-out: IC50 (50% inhibitory concentration).

Where a name gives a salt, the structure may show the parent alone.

On to `CN(C)CCC=C1c2ccccc2COc2ccccc21` [doxepin hydrochloride], for which the figures for the “SI (selectivity index, ratio of CC50 to IC50)” value with CVB1 (CVB1), in the experiment on CVB2 [1] and in the experiment on CVB3 [2] were 8.96, 4.57 and 4.46, respectively. Further, the IC50 with CVB1 (Enterovirus B, CVB1, Vero, read-out: IC50 (50% inhibitory concentration)) was 10.1 ± 0.85 µM; in the experiment with CVB2 [3], 19.8 ± 8.78 µM; in the experiment on CVB3 [4] it was 20.3 ± 5.7 µM.
